Data on one molecule can be found in publication PMC9453702, “Structure-function analysis of enterovirus protease 2A in complex with its essential host factor SETD3” (Nature Communications, 2022).

In the experiment the target is coxsackievirus B3 protease 2A with C-terminal His6-tag (for biolayer interferometry) (coxsackievirus B3 (Nancy strain)). As to the kind of experiment: BLI; Octet RED384; His-tagged 2A loaded on Ni-NTA biosensors at 20 µg/ml, SETD3 variants in solution at several concentrations; 20 mM Tris/HCl pH 8.0, 150 mM NaCl, 5% glycerol, 1 mM DTT; global fit with Rmax unlinked; both purified.

No constants are given. Whether binding was seen depends on the method and setting. Binding can be weak; no strength is given. Tags and fused reporters may be left off the sequences shown.

B1: human SETD3 Q257A + V266D + Y288P (recombinant, tag cleaved) (enzyme, UniProt Q86TU7 1-594)
chain: MGKKSRVKTQKSGTGATATVSPKEILNLTSELLQKCSSPAPGPGKEWEEYVQIRTLVEKIRKKQKGLSVTFDGKREDYFPDLMKWASENGASVEGFEMVNFKEEGFGLRATRDIKAEELFLWVPRKLLMTVESAKNSVLGPLYSQDRILQAMGNIALAFHLLCERASPNSFWQPYIQTLPSEYDTPLYFEEDEVRYLQSTQAIHDVFSQYKNTARQYAYFYKVIQTHPHANKLPLKDSFTYEDYRWAVSSVMTRQNAIPTEDGSRDTLALIPLWDMCNHTNGLITTGPNLEDDRCECVALQDFRAGEQIYIFYGTRSNAEFVIHSGFFFDNNSHDRVKIKLGVSKSDRLYAMKAEVLARAGIPTSSVFALHFTEPPISAQLLAFLRVFCMTEEELKEHLLGDSAIDRIFTLGNSEFPVSWDNEVKLWTFLEDRASLLLKTYKTTIEEDKSVLKNHDLSVRAKMAIKLRLGEKEILEKAVKSAAVNREYYRQQMEEKAPLPKYEESNLGLLESSVGDSRLPLVLRNLEEEAGVQDALNIREAISKAKATENGLVNGENSIPNGTRSENESLNQESKRAVEDAKGSSSDSTAGVKE
As for B1, the binding result was “binds weakly”.
